In paper PMC3762332:
For at least one entry, the source does not settle the construct or the ends of the probe. For part of these data: Tags and fusion partners may be left off the protein sequences shown.

The chains behind the UniProt entries cited, without tags or fusion partners. Where a name states a change or a piece, a line headed by the entry shows the natural chain unless it says otherwise.
UniProt Q15583: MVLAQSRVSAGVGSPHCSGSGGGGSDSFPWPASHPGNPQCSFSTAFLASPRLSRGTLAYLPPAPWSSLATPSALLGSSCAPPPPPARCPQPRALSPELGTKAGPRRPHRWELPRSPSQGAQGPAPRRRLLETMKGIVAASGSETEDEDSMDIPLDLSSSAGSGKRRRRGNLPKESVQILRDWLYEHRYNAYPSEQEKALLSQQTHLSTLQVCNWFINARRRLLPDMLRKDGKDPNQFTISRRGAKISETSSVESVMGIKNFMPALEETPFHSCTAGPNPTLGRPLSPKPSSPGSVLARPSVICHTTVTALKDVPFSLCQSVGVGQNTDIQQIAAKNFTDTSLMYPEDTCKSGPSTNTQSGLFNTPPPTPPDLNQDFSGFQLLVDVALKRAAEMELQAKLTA
UniProt Q8NC26: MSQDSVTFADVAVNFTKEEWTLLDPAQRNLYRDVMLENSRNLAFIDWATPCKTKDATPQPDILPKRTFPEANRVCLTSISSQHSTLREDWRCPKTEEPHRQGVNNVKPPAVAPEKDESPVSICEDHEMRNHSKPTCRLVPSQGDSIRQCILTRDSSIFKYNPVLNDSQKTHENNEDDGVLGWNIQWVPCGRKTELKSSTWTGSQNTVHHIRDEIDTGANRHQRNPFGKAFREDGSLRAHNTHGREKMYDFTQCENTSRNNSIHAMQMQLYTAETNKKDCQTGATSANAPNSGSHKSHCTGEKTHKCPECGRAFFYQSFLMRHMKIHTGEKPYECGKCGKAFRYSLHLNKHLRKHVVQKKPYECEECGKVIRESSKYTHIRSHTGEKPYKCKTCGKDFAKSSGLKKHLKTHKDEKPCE
UniProt Q8TAF7: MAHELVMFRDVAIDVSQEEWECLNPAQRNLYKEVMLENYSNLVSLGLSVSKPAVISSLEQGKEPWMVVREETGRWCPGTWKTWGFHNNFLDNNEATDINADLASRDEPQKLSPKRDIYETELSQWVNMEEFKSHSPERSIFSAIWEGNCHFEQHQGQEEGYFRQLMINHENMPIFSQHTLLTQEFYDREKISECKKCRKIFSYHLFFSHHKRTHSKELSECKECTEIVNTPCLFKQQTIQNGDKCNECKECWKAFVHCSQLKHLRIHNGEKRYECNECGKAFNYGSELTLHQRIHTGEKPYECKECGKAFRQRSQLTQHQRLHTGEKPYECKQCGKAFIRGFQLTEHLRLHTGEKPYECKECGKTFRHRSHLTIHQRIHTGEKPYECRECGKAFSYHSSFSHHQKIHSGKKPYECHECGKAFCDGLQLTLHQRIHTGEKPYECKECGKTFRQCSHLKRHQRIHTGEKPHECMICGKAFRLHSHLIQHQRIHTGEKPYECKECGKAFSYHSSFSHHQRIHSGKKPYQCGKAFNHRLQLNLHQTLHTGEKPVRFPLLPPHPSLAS
UniProt Q08945, whole entry: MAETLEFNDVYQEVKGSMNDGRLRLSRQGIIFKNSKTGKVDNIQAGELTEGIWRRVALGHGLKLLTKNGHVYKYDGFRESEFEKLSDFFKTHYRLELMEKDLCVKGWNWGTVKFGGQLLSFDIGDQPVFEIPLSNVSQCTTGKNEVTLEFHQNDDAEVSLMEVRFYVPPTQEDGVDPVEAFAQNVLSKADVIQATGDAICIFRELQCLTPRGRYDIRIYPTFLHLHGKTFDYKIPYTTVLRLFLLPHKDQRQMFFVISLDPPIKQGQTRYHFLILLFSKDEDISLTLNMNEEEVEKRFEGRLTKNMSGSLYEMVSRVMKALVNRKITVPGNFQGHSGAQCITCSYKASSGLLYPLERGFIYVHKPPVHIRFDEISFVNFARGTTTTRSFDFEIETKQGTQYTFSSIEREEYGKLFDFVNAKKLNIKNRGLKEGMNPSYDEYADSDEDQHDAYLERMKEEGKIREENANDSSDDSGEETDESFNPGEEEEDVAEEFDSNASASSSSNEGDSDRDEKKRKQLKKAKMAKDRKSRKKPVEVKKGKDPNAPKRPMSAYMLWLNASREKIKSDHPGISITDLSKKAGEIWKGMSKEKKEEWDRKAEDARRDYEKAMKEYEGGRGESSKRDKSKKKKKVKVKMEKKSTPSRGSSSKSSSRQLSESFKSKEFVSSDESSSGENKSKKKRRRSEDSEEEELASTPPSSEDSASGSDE
UniProt Q9BWM5: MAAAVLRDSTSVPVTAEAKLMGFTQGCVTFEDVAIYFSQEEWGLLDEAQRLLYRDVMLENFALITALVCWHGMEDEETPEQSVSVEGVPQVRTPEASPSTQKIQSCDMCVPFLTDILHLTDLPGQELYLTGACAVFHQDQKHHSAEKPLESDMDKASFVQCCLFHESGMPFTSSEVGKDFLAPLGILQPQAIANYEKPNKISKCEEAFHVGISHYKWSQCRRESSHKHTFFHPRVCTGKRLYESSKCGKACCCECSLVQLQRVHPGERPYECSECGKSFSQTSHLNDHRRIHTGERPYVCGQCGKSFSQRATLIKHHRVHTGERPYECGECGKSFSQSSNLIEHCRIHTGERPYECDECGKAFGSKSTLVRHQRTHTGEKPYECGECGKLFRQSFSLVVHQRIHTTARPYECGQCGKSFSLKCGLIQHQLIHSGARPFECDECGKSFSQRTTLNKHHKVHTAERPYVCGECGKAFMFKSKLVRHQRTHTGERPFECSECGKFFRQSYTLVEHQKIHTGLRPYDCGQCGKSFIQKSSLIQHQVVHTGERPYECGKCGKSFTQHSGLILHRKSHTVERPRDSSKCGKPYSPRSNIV
UniProt Q8IW36: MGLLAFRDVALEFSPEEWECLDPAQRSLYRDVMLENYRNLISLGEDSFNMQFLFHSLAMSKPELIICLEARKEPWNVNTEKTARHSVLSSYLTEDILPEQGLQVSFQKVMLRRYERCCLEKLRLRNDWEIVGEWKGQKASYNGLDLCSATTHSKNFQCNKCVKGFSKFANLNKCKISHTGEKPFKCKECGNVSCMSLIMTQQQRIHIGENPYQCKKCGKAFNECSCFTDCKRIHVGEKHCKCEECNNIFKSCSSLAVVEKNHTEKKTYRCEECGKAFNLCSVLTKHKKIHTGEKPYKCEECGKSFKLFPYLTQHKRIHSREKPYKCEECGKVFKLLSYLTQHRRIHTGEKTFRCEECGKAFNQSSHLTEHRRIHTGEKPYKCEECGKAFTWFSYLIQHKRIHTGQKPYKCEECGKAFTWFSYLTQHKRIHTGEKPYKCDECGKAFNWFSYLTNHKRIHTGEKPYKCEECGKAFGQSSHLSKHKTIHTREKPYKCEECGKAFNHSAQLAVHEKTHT
UniProt P19793: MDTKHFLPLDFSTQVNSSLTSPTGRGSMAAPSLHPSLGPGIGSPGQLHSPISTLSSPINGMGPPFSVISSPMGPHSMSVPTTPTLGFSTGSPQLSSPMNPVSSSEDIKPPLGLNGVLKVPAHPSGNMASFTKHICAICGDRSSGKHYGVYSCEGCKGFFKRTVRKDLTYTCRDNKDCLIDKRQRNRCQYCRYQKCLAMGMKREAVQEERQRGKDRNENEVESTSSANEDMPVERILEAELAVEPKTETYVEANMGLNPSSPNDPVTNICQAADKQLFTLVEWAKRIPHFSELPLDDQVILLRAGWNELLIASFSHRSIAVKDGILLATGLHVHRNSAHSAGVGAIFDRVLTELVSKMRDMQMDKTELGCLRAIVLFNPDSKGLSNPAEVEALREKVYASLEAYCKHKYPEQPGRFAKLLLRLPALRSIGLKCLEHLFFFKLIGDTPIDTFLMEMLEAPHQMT
UniProt P37231: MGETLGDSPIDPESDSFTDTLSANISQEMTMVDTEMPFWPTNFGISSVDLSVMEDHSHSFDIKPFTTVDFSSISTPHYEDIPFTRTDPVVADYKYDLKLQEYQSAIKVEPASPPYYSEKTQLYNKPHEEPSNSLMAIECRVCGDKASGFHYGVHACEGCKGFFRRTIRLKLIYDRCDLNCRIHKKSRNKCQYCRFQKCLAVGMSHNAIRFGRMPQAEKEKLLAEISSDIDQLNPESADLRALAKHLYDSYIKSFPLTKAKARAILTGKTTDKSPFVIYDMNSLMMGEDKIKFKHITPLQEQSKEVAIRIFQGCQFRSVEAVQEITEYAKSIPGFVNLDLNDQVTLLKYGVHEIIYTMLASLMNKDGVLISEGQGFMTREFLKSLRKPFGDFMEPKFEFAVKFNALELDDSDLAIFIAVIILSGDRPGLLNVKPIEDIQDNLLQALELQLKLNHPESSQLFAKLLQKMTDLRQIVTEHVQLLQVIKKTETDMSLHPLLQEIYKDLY
UniProt O00716: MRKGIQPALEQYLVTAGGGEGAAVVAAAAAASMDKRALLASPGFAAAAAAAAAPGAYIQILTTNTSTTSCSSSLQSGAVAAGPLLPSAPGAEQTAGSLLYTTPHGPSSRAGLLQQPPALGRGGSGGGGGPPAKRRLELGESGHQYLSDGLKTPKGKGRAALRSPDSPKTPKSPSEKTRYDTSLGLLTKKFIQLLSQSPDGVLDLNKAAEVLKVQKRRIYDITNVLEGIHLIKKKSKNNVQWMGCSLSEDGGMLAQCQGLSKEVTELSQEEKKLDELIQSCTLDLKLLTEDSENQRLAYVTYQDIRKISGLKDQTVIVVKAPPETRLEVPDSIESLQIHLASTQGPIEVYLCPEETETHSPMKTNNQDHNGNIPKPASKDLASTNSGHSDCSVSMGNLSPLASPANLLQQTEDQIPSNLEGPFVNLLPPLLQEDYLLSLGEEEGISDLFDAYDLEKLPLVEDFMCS
UniProt P43694: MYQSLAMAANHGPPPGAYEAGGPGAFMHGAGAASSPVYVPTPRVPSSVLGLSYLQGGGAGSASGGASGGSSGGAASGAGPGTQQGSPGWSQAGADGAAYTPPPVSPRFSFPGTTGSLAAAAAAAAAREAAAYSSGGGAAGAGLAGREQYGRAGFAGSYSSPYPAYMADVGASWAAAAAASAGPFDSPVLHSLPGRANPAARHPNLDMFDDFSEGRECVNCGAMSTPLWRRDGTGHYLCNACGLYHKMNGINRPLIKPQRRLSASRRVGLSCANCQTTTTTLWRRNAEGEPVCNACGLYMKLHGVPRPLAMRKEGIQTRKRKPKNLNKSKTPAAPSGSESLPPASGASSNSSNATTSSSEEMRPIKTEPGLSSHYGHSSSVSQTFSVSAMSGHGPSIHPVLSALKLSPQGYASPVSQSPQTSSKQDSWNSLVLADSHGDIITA
UniProt P23771: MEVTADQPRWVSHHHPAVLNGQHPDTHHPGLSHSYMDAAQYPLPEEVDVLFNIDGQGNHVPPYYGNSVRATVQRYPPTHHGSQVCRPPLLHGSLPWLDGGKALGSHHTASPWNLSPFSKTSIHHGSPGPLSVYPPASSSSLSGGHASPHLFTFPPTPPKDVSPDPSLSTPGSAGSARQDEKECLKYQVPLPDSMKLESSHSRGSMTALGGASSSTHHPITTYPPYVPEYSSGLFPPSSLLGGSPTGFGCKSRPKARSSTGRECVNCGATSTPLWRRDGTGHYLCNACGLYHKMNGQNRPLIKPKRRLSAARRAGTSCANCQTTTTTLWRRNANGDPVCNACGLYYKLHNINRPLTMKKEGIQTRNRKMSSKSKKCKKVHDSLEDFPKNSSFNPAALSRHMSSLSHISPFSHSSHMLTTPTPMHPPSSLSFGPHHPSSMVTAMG
UniProt P20719: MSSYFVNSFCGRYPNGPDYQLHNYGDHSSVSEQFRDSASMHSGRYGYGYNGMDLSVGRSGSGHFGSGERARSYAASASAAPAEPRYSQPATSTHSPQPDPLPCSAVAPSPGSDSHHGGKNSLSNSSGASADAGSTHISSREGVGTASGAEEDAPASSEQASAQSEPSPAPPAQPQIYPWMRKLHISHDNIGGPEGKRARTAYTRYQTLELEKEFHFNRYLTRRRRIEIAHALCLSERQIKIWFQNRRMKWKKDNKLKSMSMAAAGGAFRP

Assays:
Test in all cases: protein microarray
Conditions in all cases: 10-fold cold unmethylated competitor; 5mC at CpG (SssI, both strands); recombinant protein; protein details: GST (N-terminal); label: Cy5
TGIF1 (Homo sapiens) = TGIF1 (Homo sapiens) (UniProt Q15583)
ZNF114 (Homo sapiens) = ZNF114 (Homo sapiens) (UniProt Q8NC26)
ZNF461 (Homo sapiens) = ZNF461 (Homo sapiens) (UniProt Q8TAF7)
SCAPER (Homo sapiens) = biological target: T1, SCAPER (Homo sapiens) (UniProt Q9BY12)
T1 sequence (looked up, limits assumed): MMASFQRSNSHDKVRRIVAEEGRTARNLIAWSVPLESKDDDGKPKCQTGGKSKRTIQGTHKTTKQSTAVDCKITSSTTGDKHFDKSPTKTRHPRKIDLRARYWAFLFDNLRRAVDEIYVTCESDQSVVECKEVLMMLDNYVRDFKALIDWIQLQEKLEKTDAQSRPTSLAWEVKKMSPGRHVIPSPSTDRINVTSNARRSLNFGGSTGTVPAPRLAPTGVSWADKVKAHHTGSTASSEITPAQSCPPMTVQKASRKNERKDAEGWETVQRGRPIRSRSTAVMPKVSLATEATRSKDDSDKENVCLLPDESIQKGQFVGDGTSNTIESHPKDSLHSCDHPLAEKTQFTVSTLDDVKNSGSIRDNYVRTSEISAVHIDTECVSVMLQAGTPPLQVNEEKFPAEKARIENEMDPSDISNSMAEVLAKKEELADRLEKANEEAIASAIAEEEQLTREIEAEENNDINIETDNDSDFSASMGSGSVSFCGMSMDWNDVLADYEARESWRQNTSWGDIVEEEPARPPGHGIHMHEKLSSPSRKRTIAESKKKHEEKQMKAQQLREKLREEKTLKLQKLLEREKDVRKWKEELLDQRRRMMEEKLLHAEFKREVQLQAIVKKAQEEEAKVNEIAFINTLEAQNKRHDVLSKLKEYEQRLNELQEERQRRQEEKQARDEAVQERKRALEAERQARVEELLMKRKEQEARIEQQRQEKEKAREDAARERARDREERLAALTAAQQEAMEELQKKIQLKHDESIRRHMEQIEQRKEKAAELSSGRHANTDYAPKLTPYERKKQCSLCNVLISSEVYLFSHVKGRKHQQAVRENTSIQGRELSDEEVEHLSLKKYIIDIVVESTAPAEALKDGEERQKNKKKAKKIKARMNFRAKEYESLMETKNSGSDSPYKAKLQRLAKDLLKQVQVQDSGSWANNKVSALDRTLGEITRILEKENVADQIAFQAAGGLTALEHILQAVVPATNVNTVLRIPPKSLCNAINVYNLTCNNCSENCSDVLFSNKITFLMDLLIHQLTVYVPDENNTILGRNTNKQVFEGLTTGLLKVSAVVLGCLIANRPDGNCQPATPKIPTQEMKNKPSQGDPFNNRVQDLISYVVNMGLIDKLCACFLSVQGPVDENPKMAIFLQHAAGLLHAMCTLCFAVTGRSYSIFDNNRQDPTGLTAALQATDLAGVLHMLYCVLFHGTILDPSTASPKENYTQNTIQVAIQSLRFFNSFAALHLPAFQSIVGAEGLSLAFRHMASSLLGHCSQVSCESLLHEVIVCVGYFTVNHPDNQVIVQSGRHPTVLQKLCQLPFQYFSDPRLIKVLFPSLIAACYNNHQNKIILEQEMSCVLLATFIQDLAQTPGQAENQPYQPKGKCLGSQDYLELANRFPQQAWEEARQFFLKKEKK

SSRP1 (Homo sapiens) = SSRP1 (Homo sapiens) (UniProt Q08945)
SMAD4 (Homo sapiens) = biological target: T2, SMAD4 (Homo sapiens) (UniProt Q13485)
T2 sequence (looked up, limits assumed): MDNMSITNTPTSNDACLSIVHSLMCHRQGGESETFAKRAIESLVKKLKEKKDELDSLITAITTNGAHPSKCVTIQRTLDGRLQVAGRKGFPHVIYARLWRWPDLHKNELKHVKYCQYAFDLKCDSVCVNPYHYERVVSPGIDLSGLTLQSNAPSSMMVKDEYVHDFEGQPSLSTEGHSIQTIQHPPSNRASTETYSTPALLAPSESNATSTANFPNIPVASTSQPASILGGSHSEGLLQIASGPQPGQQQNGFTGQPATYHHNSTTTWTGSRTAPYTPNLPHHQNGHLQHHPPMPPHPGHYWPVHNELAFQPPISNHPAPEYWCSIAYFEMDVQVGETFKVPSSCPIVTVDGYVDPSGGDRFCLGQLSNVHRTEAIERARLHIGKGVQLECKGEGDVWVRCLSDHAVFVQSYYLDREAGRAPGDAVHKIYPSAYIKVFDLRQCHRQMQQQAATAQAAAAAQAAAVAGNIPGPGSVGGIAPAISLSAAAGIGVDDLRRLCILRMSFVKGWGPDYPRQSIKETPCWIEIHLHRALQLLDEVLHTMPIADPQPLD

ZNF416 (Homo sapiens) = ZNF416 (Homo sapiens) (UniProt Q9BWM5)
ZNF695 (Homo sapiens) = ZNF695 (Homo sapiens) (UniProt Q8IW36)
RXRA (Homo sapiens) = RXRA (Homo sapiens) (UniProt P19793)
RNF138 (Homo sapiens) = biological target: T3, RNF138 (Homo sapiens) (UniProt Q8WVD3)
T3 sequence (looked up, limits assumed): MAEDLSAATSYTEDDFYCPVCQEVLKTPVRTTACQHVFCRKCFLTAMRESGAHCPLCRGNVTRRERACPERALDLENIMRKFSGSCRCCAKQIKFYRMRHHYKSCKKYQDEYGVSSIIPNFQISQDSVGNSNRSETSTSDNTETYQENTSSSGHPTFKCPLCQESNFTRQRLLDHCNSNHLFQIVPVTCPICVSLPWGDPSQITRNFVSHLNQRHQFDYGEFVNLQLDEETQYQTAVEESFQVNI

PPARG (Homo sapiens) = PPARG (Homo sapiens) (UniProt P37231)
E2F3 (Homo sapiens) = E2F3 (Homo sapiens) (UniProt O00716)
BCL3 (Homo sapiens) = biological target: T4, BCL3 (Homo sapiens) (UniProt P20749)
T4 sequence (looked up, limits assumed): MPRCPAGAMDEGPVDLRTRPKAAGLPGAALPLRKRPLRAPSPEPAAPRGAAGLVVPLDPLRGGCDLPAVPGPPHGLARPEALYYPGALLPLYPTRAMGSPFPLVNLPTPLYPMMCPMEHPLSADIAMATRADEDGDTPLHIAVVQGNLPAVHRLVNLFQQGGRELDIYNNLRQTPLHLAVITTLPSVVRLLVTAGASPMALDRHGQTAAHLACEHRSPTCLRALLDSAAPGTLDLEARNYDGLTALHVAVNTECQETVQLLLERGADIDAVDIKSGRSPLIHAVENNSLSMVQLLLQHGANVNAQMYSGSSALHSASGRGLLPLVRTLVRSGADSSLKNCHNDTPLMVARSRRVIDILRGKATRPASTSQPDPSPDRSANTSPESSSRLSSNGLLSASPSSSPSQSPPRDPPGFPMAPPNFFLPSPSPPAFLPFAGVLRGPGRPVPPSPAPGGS

GATA4 (Homo sapiens) = GATA4 (Homo sapiens) (UniProt P43694)
ZCCHC7 (Homo sapiens) = biological target: T5, ZCCHC7 (Homo sapiens) (UniProt Q8N3Z6)
T5 sequence (looked up, limits assumed): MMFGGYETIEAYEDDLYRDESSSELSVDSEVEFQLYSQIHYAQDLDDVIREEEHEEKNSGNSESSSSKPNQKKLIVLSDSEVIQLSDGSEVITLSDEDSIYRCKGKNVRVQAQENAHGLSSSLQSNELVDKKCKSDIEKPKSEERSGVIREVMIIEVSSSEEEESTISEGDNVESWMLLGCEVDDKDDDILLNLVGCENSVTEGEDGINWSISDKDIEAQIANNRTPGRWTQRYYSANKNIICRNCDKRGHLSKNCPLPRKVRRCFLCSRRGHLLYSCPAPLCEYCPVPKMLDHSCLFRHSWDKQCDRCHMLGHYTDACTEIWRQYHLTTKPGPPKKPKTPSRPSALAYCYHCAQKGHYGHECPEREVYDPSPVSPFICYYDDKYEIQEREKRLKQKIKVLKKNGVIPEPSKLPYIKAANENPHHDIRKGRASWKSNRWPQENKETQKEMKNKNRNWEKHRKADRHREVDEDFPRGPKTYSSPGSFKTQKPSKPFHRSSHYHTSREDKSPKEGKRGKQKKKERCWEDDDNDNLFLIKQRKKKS

GATA3 (Homo sapiens) = GATA3 (Homo sapiens) (UniProt P23771)
HOXA5 (Homo sapiens) = HOXA5 (Homo sapiens) (UniProt P20719)
NRF1 (Homo sapiens) = biological target: T6, NRF1 (Homo sapiens) (UniProt Q16656)
T6 sequence (looked up, limits assumed): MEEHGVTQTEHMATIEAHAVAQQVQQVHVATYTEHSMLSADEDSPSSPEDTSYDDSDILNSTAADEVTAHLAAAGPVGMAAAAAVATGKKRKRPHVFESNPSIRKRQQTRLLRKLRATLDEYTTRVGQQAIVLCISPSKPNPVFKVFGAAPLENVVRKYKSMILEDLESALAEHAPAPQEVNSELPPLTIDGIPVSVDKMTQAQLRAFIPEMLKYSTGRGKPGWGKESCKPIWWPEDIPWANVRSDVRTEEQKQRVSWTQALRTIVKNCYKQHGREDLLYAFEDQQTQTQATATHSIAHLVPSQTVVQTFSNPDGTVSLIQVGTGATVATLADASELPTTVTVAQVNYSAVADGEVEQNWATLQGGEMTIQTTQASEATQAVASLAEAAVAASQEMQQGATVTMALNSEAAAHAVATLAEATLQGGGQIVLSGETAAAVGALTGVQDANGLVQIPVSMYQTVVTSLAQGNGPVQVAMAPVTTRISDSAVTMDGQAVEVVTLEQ

Measured: binding result

AACCGTCGAAAAACCGTCGCCCTATAGTGAGTGCTATTA (double strand) [M426]
binds: TGIF1 (Homo sapiens) | ZNF114 (Homo sapiens) | ZNF461 (Homo sapiens)

CCCGCTCAAACCCGCTCCCCTATAGTGAGTGCTATTA (double strand) [M300]
not listed: TGIF1 (Homo sapiens) | ZNF461 (Homo sapiens) | NRF1 (Homo sapiens)
binds: all other assays above

ACCCGGATTTACCCGGACCCTATAGTGAGTGCTATTA (double strand) [M313]
not listed: TGIF1 (Homo sapiens) | ZNF461 (Homo sapiens) | ZCCHC7 (Homo sapiens)
binds: all other assays above

TGACGCATTTTGACGCACCCTATAGTGAGTGCTATTA (double strand) [M312]
not listed: TGIF1 (Homo sapiens) | ZNF461 (Homo sapiens) | GATA3 (Homo sapiens) | NRF1 (Homo sapiens)
binds: all other assays above

CTCGCCCTTTCTCGCCCCCCTATAGTGAGTGCTATTA (double strand) [M316]
not listed: TGIF1 (Homo sapiens) | ZNF461 (Homo sapiens) | NRF1 (Homo sapiens)
binds: all other assays above

CCGCCGGAAACCGCCGGCCCTATAGTGAGTGCTATTA (double strand) [M65]
binds: SCAPER (Homo sapiens) | ZNF114 (Homo sapiens) | ZNF461 (Homo sapiens) | HOXA5 (Homo sapiens)
